In the supplement of paper PMC10849652:
This is one part of the list.

The chains behind the UniProt entries cited, without tags or fusion partners. Where a name states a change or a piece, a line headed by the entry shows the natural chain unless it says otherwise.
UniProt O94782: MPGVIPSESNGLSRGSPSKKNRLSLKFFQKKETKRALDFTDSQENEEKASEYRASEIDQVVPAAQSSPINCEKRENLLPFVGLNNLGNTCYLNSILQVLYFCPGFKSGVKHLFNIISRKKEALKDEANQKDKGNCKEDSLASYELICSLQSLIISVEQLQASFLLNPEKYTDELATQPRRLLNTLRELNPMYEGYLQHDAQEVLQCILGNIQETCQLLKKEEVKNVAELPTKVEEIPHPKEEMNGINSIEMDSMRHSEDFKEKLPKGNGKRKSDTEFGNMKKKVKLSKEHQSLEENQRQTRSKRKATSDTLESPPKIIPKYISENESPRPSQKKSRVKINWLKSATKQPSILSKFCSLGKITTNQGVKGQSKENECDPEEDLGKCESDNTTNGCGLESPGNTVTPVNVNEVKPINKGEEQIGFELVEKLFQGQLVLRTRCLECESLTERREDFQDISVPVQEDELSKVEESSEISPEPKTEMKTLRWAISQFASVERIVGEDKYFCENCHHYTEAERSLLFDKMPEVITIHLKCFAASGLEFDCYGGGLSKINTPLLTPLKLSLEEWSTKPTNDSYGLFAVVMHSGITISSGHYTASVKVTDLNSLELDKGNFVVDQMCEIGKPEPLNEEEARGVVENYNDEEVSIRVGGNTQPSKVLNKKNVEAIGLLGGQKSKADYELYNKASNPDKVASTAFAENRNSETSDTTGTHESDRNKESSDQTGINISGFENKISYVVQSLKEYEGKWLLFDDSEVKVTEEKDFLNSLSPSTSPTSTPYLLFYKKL
UniProt Q8TED0: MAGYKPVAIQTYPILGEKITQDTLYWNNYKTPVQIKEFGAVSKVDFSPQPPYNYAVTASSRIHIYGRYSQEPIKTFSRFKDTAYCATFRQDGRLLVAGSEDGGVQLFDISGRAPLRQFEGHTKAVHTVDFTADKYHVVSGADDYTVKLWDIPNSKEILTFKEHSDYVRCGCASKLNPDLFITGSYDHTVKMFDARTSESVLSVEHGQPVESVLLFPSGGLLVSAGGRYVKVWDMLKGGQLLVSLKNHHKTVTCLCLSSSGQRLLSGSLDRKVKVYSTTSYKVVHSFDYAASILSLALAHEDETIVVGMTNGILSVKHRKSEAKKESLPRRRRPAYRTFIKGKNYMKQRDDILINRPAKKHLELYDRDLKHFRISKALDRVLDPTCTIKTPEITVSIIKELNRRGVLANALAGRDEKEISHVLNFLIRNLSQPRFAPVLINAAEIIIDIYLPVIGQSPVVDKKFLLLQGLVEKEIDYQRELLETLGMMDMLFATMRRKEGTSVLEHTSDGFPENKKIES
UniProt Q69YN4: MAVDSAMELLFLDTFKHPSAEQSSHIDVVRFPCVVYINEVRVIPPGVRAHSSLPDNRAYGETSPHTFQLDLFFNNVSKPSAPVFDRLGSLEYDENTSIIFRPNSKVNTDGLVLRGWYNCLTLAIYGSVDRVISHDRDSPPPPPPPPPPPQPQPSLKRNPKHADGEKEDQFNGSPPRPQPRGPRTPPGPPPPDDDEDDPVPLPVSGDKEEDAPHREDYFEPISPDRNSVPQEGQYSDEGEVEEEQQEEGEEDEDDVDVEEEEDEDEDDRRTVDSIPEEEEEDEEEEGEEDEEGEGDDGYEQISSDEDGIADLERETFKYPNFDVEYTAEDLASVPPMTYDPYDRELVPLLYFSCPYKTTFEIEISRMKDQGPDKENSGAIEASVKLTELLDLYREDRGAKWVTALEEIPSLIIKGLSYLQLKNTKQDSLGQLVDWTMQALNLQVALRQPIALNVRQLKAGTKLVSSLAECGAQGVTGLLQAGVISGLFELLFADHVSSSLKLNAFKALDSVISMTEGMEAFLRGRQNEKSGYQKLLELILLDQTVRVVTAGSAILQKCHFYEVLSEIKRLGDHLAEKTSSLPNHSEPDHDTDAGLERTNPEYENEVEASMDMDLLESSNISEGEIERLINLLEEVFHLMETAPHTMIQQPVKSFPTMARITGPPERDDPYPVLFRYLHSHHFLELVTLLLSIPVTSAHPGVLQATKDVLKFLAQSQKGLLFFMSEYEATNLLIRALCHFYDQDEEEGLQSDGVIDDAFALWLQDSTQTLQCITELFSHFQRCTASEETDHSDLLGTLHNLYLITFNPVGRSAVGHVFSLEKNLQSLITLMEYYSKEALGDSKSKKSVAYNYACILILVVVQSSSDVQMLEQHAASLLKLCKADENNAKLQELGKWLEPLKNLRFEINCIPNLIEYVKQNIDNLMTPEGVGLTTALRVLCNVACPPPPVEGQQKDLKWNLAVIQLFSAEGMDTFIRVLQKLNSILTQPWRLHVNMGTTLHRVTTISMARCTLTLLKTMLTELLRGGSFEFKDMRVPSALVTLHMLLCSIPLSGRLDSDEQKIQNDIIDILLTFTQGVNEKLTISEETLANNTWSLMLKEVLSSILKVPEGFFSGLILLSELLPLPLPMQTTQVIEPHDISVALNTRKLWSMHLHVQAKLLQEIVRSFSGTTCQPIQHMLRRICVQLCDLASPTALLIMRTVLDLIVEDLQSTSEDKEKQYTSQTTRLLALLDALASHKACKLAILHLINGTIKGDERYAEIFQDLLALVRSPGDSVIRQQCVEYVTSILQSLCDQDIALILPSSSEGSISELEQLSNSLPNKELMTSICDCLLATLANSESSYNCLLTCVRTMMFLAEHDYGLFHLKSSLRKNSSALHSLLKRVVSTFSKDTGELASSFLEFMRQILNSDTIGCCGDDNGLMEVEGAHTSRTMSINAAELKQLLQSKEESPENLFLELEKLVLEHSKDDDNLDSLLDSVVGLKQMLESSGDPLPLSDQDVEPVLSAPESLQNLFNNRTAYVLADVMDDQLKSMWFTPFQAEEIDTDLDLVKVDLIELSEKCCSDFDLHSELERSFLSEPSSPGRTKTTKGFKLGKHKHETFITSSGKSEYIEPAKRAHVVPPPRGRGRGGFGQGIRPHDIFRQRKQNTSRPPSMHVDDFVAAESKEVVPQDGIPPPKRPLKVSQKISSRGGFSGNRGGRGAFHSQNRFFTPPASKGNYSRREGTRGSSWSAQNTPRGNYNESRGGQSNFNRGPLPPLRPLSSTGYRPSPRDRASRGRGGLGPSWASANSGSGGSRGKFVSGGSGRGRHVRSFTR
UniProt Q9NVA1: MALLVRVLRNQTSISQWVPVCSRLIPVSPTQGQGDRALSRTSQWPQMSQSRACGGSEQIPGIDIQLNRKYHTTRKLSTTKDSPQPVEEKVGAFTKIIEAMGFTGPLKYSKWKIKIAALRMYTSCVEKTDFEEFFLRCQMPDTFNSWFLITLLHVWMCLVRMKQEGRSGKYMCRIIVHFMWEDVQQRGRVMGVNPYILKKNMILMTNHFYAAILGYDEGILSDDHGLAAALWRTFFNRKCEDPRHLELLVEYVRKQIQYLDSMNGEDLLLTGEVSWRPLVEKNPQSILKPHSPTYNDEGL
UniProt Q9NWZ5: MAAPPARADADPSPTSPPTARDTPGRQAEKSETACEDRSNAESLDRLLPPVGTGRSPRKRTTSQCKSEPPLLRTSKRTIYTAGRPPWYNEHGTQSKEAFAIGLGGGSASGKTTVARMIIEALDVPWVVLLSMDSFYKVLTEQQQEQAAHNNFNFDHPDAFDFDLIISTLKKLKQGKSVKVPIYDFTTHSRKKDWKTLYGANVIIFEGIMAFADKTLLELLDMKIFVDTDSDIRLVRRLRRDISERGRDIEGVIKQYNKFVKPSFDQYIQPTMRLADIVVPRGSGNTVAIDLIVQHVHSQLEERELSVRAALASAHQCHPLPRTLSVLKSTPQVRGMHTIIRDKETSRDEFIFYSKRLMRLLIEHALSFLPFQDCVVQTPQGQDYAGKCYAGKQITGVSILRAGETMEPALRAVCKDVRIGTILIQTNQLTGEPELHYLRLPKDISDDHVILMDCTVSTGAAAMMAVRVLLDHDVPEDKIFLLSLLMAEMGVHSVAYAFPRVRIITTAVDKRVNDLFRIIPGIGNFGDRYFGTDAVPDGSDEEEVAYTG
UniProt Q86UV5: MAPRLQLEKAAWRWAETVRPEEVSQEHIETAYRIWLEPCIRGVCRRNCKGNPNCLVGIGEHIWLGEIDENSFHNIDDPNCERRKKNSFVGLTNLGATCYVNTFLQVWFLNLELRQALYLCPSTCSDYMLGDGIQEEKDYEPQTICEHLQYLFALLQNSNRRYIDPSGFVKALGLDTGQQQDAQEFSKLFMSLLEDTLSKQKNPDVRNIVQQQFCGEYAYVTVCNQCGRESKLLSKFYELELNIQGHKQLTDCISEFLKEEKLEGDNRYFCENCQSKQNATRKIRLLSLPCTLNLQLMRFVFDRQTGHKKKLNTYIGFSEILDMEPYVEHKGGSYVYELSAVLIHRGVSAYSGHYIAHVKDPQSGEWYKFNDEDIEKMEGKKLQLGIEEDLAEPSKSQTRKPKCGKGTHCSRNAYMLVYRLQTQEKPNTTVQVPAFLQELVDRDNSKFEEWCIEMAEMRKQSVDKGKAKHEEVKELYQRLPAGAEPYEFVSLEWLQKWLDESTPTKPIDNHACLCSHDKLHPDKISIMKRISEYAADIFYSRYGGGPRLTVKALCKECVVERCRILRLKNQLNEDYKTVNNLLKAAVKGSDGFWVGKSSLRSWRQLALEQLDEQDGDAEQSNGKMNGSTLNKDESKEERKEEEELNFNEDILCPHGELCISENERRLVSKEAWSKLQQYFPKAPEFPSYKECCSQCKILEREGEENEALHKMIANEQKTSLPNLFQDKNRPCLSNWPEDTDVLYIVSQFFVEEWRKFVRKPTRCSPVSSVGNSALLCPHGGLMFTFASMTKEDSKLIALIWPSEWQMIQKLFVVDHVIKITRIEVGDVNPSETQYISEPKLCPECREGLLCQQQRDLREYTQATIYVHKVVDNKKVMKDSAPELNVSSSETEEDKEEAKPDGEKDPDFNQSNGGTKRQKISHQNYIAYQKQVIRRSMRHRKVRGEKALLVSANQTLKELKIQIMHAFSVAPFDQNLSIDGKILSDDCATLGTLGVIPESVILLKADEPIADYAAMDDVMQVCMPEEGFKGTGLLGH
UniProt Q9UHP3: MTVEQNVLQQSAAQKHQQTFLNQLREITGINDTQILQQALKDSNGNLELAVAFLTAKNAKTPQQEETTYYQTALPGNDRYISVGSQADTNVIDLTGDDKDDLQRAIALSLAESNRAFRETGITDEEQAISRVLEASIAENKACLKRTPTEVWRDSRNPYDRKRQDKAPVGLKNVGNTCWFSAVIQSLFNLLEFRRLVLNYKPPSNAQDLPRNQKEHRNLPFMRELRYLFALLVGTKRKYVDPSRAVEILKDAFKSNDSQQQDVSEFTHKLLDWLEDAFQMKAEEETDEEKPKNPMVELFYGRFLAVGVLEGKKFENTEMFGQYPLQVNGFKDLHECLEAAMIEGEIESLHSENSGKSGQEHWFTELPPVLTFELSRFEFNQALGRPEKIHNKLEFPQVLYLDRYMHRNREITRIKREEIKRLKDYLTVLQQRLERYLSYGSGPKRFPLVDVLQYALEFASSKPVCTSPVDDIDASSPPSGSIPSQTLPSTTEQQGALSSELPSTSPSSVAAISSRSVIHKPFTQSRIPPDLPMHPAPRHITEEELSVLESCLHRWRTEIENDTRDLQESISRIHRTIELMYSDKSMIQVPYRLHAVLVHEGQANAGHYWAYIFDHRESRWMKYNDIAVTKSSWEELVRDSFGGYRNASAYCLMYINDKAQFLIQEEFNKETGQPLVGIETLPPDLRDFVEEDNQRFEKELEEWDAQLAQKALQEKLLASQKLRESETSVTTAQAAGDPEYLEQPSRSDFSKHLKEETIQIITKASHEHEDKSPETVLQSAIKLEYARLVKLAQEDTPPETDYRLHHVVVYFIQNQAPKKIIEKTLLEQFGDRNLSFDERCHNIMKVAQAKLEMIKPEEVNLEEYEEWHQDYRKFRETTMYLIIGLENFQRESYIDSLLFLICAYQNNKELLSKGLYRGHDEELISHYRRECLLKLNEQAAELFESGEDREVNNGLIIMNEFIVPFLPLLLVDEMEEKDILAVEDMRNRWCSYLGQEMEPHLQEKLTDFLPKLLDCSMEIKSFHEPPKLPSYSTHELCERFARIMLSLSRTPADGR
UniProt Q16880: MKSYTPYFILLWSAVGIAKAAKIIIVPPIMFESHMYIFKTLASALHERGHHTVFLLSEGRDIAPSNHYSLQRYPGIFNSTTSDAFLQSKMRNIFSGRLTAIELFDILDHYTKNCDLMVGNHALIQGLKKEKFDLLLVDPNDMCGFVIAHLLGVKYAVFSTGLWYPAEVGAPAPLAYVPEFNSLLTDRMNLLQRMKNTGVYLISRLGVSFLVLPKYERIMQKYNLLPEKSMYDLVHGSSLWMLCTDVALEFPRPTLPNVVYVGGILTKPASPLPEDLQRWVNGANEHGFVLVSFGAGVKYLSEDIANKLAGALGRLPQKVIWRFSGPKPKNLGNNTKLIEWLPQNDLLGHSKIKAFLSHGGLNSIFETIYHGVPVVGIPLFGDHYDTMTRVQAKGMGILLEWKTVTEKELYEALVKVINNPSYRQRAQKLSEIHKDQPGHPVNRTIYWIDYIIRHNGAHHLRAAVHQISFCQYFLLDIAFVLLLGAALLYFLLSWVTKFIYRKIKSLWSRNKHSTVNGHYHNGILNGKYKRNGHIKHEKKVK

Experiments:
Assay in all cases: log2 fold change, soluble protein after heating vs DMSO (PISA); higher = thermal stabilisation; K562 lysate, 10 uM; active = over 0.2 and 3.5 SD of the protein, either way, in both replicates (recomputed)
[1] = compound: C=CC(=O)N1CCC[C@@H](n2nc(-c3ccc(Oc4ccccc4)cc3)c3c(N)ncnc32)C1 [ibrutinib]
Procedure, shortened: (§1)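 Log-two fold change in thermal stability relative to solvent controls is reported from duplicates. For each sample, crude K562 extract from dounce-homogenised pellets in PBS pH 7.4 with 1 mM MgCl2, at 1 mg/mL protein, was treated with 10 μM compound for 30 min. Aliquots heated for 3 min across 48°C-58°C were pooled, brought to 0.5% NP-40 at 4°C and cleared at 21,000xg for 90 min. The supernatant was quantified by TMTpro 16plex LC-MS/MS with channel sums equalised.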

[2] = compound: CC(=O)c1cnc2ccc(-c3cc(Cl)c(O)c(Cl)c3)nc2c1N[C@H]1CC[C@H](CN(C)C)CC1
Procedure, shortened: as §1

[3] = compound: CC(C)(C)Cn1c(N)nc2ccc(-c3[nH]c(C(C)(C)C)nc3-c3ccc(F)cc3)nc21 [ralimetinib]
Procedure, shortened: as §1

[4] = compound: CC(C)(O)CC(=O)NCCn1ccc2ncnc(Nc3ccc(Oc4cccc(C(F)(F)F)c4)c(Cl)c3)c21
Procedure, shortened: as §1

[5] = compound: CC(C)C1=C2N=C(C=C(N2N=C1)NCC3=CC=CC=C3)NCCCCCCN
Procedure, shortened: as §1

[6] = compound: CC1=C(C(CC(=O)N1)C2=CC=C(C=C2)C(F)(F)F)C(=O)NC3=C(C=C4C(=C3)C=NN4)F
Procedure, shortened: as §1

[7] = compound: CC1=C(C2=C(C=C1)C(=O)C3=CC=CC=C3N2CCCN)C
Procedure, shortened: as §1

[8] = compound: CC1=C(C=C(C=C1)NC(=O)C2=CC(=CC=C2)C(C)(C)C#N)NC3=CC4=C(C=C3)N=CN(C4=O)C
Procedure, shortened: as §1

[9] = compound: CC1=C(C=C(C=C1)NC(=O)C2=CC(=CC=C2)N(C)C)NC(=O)C3=CC=C(C=C3)O
Procedure, shortened: as §1

[10] = compound: CC1=CC=C(C=C1)SC2=C3C=C(SC3=CN=C2)C(=O)N
Procedure, shortened: as §1

[11] = compound: CCCS(=O)(=O)Nc1ccc(F)c(C(=O)c2c[nH]c3ncc(-c4ccc(Cl)cc4)cc23)c1F [vemurafenib]
Procedure, shortened: as §1

[12] = compound: CCCS(=O)(=O)Nc1ccc(F)c(C(=O)c2c[nH]c3ncc(Cl)cc23)c1F
Procedure, shortened: as §1

[13] = compound: CCN(CCCOc1ccc2c(Nc3cc(CC(=O)Nc4cccc(F)c4)[nH]n3)ncnc2c1)CCOP(=O)(O)O [barasertib]
Procedure, shortened: as §1

[14] = compound: CC[C@@H]1C(=O)N(C)c2cnc(Nc3ccc(C(=O)NC4CCN(C)CC4)cc3OC)nc2N1C1CCCC1
Procedure, shortened: as §1

[15] = compound: CC[C@@H]1C(=O)N(C)c2cnc(Nc3ccc(C(=O)N[C@H]4CC[C@H](N5CCN(CC6CC6)CC5)CC4)cc3OC)nc2N1C(C)C [volasertib]
Procedure, shortened: as §1

[16] = compound: CCn1c(C(=O)N(C2CC2)C2CC2)cc2c3c(ncn3C)c(Nc3cc(C)n(C)n3)nc21
Procedure, shortened: as §1

[17] = compound: CCn1cc(-c2ccnc3[nH]c(-c4cccc(CN(C)C)c4)cc23)c(-c2ccc(NC(=O)N(C)C)cc2)n1
Procedure, shortened: as §1

[18] = compound: CN1CCC(CNc2ccc3ncc(-c4cccc(OC(F)(F)F)c4)n3n2)CC1
Procedure, shortened: as §1

[19] = compound: CN1CCN(CCOc2cc(OC3CCOCC3)c3c(Nc4c(Cl)ccc5c4OCO5)ncnc3c2)CC1 [saracatinib]
Procedure, shortened: as §1

[20] = compound: CN1CCN(c2nc(C3=C(c4c[nH]c5ccccc45)C(=O)NC3=O)c3ccccc3n2)CC1 [sotrastaurin]
Procedure, shortened: as §1

Measured: log2 fold change

UNC93B1 (UniProt Q9H1C4)
inactive: [1] -0.197 | [2] 0.077 | [3] 0.005 | [4] -0.063 | [5] -0.016 | [6] -0.039 | [7] 0.051 | [8] 0.175 | [9] 0.063 | [10] -0.202 | [11] 0.019 | [12] 0.112 | [13] 0.015 | [14] 0.143 | [15] 0 | [16] 0.019 | [17] -0.091 | [18] 0.084 | [19] -0.019 | [20] -0.141

USP1 (UniProt O94782)
inactive: [1] 0.018 | [2] 0.011 | [3] 0.04 | [4] 0.007 | [5] -0.001 | [6] -0.023 | [7] -0.029 | [8] 0.006 | [9] 0.043 | [10] -0.06 | [11] 0.002 | [12] -0.005 | [13] 0.159 | [14] -0.034 | [15] -0.034 | [16] -0.029 | [17] -0.025 | [18] 0.031 | [19] 0.005 | [20] -0.006

VBP1 (UniProt P61758)
inactive: [1] -0.015 | [2] -0.008 | [3] 0.005 | [4] 0.014 | [5] -0.017 | [6] -0.035 | [7] -0.007 | [8] 0.008 | [9] -0.014 | [10] -0.014 | [11] -0.005 | [12] 0.011 | [13] -0.033 | [14] 0.029 | [15] 0.012 | [16] 0.034 | [17] 0.006 | [18] 0.036 | [19] -0.019 | [20] 0.006

UTP15 (UniProt Q8TED0)
inactive: [1] 0.048 | [2] 0.029 | [3] 0.036 | [4] -0.037 | [5] 0.004 | [6] 0.031 | [7] -0.045 | [8] -0.007 | [9] 0.002 | [10] -0.002 | [11] 0.036 | [12] 0.005 | [13] 0.039 | [14] -0.038 | [15] -0.04 | [16] -0.003 | [17] -0.03 | [18] -0.012 | [19] 0.052 | [20] 0.002

VIRMA (UniProt Q69YN4)
inactive: [1] -0.034 | [2] 0.049 | [3] 0.027 | [4] -0.039 | [5] 0.005 | [6] 0.029 | [7] 0.014 | [8] 0.069 | [9] 0.004 | [10] -0.011 | [11] 0.058 | [12] 0.007 | [13] 0.082 | [14] -0.005 | [15] -0.039 | [16] 0.036 | [17] -0.104 | [18] -0.08 | [19] -0.016 | [20] -0.024

UQCRQ (UniProt O14949)
inactive: [1] -0.018 | [2] -0.015 | [3] -0.009 | [4] -0.026 | [5] 0.021 | [6] 0.005 | [7] -0.01 | [8] 0.029 | [9] -0.018 | [10] -0.015 | [11] -0.053 | [12] 0.039 | [13] -0.061 | [14] -0.004 | [15] 0.013 | [16] 0.047 | [17] 0.219 | [18] -0.09 | [19] -0.036 | [20] 0.007

UQCC1 (UniProt Q9NVA1)
inactive: [1] -0.001 | [2] 0.02 | [3] 0.018 | [4] -0.023 | [5] -0.001 | [6] 0.014 | [7] 0.014 | [8] -0.018 | [9] -0.014 | [10] -0.002 | [11] -0.05 | [12] 0.008 | [13] 0.023 | [14] 0.01 | [15] 0.03 | [16] 0.026 | [17] 0 | [18] 0.034 | [19] -0.006 | [20] -0.006

UHRF1BP1 (UniProt Q6BDS2)
inactive: [1] 0 | [2] -0.05 | [3] 0.052 | [4] 0.038 | [5] 0.022 | [6] 0.053 | [7] -0.02 | [8] -0.034 | [9] 0.008 | [10] -0.011 | [11] 0.027 | [12] 0 | [13] 0.048 | [14] 0.105 | [15] -0.042 | [16] -0.044 | [17] -0.079 | [18] 0.02 | [19] 0.019 | [20] -0.014

USO1 (UniProt O60763)
inactive: [1] -0.06 | [2] -0.008 | [3] -0.203 | [4] 0.155 | [5] 0.053 | [6] 0.013 | [7] 0.075 | [8] -0.021 | [9] 0.089 | [10] 0.062 | [11] 0.119 | [12] 0.096 | [13] 0.003 | [14] 0.108 | [15] -0.019 | [16] -0.152 | [17] -0.052 | [18] 0.117 | [19] 0.023 | [20] -0.021

UGP2 (UniProt Q16851)
inactive: [1] -0.021 | [2] -0.007 | [3] -0.008 | [4] -0.018 | [5] -0.007 | [6] -0.016 | [7] -0.006 | [8] 0 | [9] -0.014 | [10] 0 | [11] -0.014 | [12] -0.008 | [13] -0.018 | [14] 0.012 | [15] 0.016 | [16] -0.018 | [17] -0.017 | [18] 0.016 | [19] 0.012 | [20] -0.007

Quoted from the listing (4 entries):
UQCRQ (UniProt O14949)
inactive: [1] -0.018 | [2] -0.015 | [3] -0.009 | [4] -0.026 | [5] 0.021 | [6] 0.005 | [7] -0.01 | [8] 0.029 | [9] -0.018 | [10] -0.015 | [11] -0.053 | [12] 0.039 | [13] -0.061 | [14] -0.004 | [15] 0.013 | [16] 0.047 | [17] 0.219 | [18] -0.09 | [19] -0.036 | [20] 0.007

UQCC1 (UniProt Q9NVA1)
inactive: [1] -0.001 | [2] 0.02 | [3] 0.018 | [4] -0.023 | [5] -0.001 | [6] 0.014 | [7] 0.014 | [8] -0.018 | [9] -0.014 | [10] -0.002 | [11] -0.05 | [12] 0.008 | [13] 0.023 | [14] 0.01 | [15] 0.03 | [16] 0.026 | [17] 0 | [18] 0.034 | [19] -0.006 | [20] -0.006

UHRF1BP1 (UniProt Q6BDS2)
inactive: [1] 0 | [2] -0.05 | [3] 0.052 | [4] 0.038 | [5] 0.022 | [6] 0.053 | [7] -0.02 | [8] -0.034 | [9] 0.008 | [10] -0.011 | [11] 0.027 | [12] 0 | [13] 0.048 | [14] 0.105 | [15] -0.042 | [16] -0.044 | [17] -0.079 | [18] 0.02 | [19] 0.019 | [20] -0.014

USO1 (UniProt O60763)
inactive: [1] -0.06 | [2] -0.008 | [3] -0.203 | [4] 0.155 | [5] 0.053 | [6] 0.013 | [7] 0.075 | [8] -0.021 | [9] 0.089 | [10] 0.062 | [11] 0.119 | [12] 0.096 | [13] 0.003 | [14] 0.108 | [15] -0.019 | [16] -0.152 | [17] -0.052 | [18] 0.117 | [19] 0.023 | [20] -0.021

Continuation.

UNC5B (UniProt Q8IZJ1)
inactive: [1] 0.037 | [2] -0.232 | [3] -0.012 | [4] -0.016 | [5] 0.044 | [6] 0.203 | [7] 0.004 | [8] 0.017 | [9] -0.003 | [10] 0.127 | [11] 0.101 | [12] 0.082 | [13] 0.067 | [14] 0.042 | [15] -0.288 | [16] -0.031 | [17] 0.217 | [18] -0.141 | [19] 0.046 | [20] 0.023

UCKL1 (UniProt Q9NWZ5)
inactive: [1] 0.024 | [2] 0.017 | [3] 0.108 | [4] 0.03 | [5] -0.024 | [6] 0.016 | [7] 0.039 | [8] -0.016 | [9] 0.059 | [10] 0.027 | [11] 0.005 | [12] -0.055 | [13] 0.016 | [14] -0.028 | [15] 0.003 | [16] 0.03 | [17] -0.064 | [18] 0.058 | [19] 0.045 | [20] 0.026

USP48 isoform 8 (UniProt Q86UV5)
inactive: [1] -0.02 | [2] -0.014 | [3] 0.004 | [4] 0 | [5] -0.005 | [6] 0.007 | [7] -0.005 | [8] 0.001 | [9] 0 | [10] -0.01 | [11] -0.002 | [12] 0.036 | [13] 0.002 | [14] -0.013 | [15] -0.043 | [16] 0.007 | [17] -0.011 | [18] -0.032 | [19] -0.004 | [20] 0.031

USP25 (UniProt Q9UHP3)
inactive: [1] 0.005 | [2] 0.012 | [3] 0.04 | [4] -0.008 | [5] -0.002 | [6] -0.007 | [7] -0.003 | [8] 0.009 | [9] 0.011 | [10] 0.004 | [11] -0.043 | [12] -0.012 | [13] 0.011 | [14] 0.025 | [15] -0.016 | [16] 0.03 | [17] 0.022 | [18] -0.021 | [19] 0.005 | [20] 0.024

VAPB (UniProt O95292)
inactive: [1] -0.027 | [2] -0.043 | [3] -0.003 | [4] 0.005 | [5] 0.007 | [6] -0.02 | [7] 0.019 | [8] -0.02 | [9] -0.004 | [10] -0.039 | [11] -0.009 | [12] -0.006 | [13] -0.025 | [14] 0.058 | [15] 0.013 | [16] 0.037 | [17] -0.071 | [18] 0.047 | [19] 0.02 | [20] 0.025

UGT8 (UniProt Q16880)
inactive: [1] -0.014 | [2] -0.044 | [3] 0.037 | [4] -0.067 | [5] -0.088 | [6] 0.072 | [7] -0.155 | [8] 0.098 | [9] -0.043 | [10] -0.06 | [11] -0.028 | [12] 0.093 | [13] 0.098 | [14] -0.07 | [15] 0.067 | [16] -0.066 | [17] 0.011 | [18] -0.03 | [19] 0.01 | [20] 0.013
